# Primary screen of a compound library

Chains of the proteins cited; added tags and fusions are not shown. Residues count along the entry.
UniProt I6X8D2, whole entry: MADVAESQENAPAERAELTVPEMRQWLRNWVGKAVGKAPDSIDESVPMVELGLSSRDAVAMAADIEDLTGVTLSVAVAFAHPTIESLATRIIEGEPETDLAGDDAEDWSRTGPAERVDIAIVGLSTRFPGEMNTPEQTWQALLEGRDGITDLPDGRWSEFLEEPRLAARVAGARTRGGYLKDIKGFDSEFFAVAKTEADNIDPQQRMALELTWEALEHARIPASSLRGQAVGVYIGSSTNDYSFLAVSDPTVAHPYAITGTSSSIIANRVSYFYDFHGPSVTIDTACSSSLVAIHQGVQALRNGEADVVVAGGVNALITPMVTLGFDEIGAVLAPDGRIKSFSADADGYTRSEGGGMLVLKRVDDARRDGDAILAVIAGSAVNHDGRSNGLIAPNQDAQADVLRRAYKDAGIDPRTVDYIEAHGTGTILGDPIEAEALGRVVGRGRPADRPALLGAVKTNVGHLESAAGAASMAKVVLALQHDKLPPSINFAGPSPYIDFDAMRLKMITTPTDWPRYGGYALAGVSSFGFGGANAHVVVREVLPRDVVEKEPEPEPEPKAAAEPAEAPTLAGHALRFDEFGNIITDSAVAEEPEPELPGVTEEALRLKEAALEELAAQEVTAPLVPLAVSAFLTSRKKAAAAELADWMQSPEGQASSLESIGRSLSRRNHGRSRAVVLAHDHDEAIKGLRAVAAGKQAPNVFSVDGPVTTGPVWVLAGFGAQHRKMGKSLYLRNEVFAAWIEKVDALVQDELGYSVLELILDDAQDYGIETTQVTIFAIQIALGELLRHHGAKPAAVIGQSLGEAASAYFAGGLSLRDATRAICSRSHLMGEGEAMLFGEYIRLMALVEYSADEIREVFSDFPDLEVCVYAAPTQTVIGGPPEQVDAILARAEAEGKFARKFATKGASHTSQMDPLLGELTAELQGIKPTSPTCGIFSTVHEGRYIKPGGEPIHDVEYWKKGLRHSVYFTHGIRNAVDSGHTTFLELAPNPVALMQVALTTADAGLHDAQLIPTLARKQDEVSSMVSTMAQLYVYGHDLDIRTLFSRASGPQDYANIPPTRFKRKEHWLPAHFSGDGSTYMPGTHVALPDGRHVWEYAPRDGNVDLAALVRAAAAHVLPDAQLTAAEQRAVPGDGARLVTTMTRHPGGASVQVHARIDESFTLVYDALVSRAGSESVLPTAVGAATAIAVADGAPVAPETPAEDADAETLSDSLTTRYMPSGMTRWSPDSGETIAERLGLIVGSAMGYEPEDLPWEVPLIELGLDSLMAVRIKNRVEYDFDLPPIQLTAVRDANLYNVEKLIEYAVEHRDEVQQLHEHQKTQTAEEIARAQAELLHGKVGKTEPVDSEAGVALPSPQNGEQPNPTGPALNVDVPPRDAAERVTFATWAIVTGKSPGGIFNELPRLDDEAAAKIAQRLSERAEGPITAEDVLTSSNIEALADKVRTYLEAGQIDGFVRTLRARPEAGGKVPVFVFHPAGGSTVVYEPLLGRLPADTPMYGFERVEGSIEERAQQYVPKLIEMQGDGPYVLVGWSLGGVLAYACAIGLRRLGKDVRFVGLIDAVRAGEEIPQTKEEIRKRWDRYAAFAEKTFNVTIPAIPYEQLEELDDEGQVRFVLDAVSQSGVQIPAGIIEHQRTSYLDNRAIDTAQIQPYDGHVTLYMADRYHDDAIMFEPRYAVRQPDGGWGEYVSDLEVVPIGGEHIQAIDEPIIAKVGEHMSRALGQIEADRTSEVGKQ
UniProt Q4DA54, 1-478: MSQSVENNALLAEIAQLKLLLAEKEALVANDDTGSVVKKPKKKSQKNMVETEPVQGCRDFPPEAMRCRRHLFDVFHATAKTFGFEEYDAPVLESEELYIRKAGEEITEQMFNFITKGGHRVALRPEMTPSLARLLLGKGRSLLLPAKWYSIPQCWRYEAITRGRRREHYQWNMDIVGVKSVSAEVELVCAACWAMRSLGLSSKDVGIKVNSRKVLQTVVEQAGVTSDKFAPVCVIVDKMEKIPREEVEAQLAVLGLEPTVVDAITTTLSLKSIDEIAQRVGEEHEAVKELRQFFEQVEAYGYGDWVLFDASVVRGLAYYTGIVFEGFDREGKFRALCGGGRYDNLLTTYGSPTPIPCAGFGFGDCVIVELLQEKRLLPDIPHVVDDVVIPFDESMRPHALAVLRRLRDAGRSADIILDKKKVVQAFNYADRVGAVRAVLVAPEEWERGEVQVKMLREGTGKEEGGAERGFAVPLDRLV

Pks13 thioesterase: 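Polyketide synthase Pks13, Mycobacterium tuberculosis (UniProt I6X8D2). Enzyme assay of the thioesterase domain of polyketide synthase 13; the read-out is not stated. Concentration: 30 µM. The record gives no direction; the compounds picked for IC50 retests had high values, so higher reads as stronger inhibition. Size under these conditions: about 67,000 compounds, about 300 of them at 50% or above in at least one test.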
TcHisRS: 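Histidine-tRNA ligase, Trypanosoma cruzi CL Brener (UniProt Q4DA54). Enzyme assay of histidyl-tRNA synthetase; the read-out is not stated. Concentration: 30 µM. Higher reads as stronger inhibition (inferred: compounds with an IC50 in retests scored well above the rest). Size under these conditions: about 69,000 compounds, about 31 of them at 50% or above in at least one test.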

Results are given as percent effect.
How 0% and 100% were set is not recorded. Most values in the screen are low, and negative values occur.
The compounds are a random part of those screened.

* CN(C)[C@@H]1CCN(c2ncc(F)cn2)[C@H]1Cc1ccncc1 : Pks13 thioesterase: 29.6%; TcHisRS: 7.463%
* CC(C)N(C)S(=O)(=O)N1CCCC1CC(=O)c1cccs1 (stereo unspecified) : Pks13 thioesterase: -23.53%; TcHisRS: 3.093%
* Cc1ccc(-c2cnc3n2CCN(C)C32CCN(CC3CC3)CC2)cc1 : Pks13 thioesterase: -16.68%; TcHisRS: 2.674%
* COCCCNC(=O)Cc1cc(-c2ccccc2)on1 : Pks13 thioesterase: -31.29%; TcHisRS: -4.444%
* O=C(c1cccnc1)N1CCC2(CC1)CCN(Cc1ccccn1)C2=O : Pks13 thioesterase: -0.3058%; TcHisRS: 0.8%
* Cc1cccnc1N1CCN(Cc2cc(O)c3cccc(F)c3n2)CC1 : Pks13 thioesterase: -16.05%; TcHisRS: 1.19%
* CC(C#N)CSc1ccccc1NCC(=O)NC1CCCCC1 (stereo unspecified) : Pks13 thioesterase: -44.43%; TcHisRS: 4.926%
* Cc1cc(C(F)(F)F)nn1CC(C)C(=O)Nc1cccnc1 (stereo unspecified) : Pks13 thioesterase: -9.472%; TcHisRS: 0.8696%
* CN(CCCC1CCCO1)C(=O)c1cccc(C#N)c1 (stereo unspecified) : Pks13 thioesterase: -18.83%; TcHisRS: 2.609%
* CCOc1ccc(C(F)(F)F)cc1NC(=O)N1CCC(C(N)=O)CC1 : Pks13 thioesterase: 6.405%; TcHisRS: 11.06%
* COc1c(C)cnc(CN(C)C(=O)c2ccccc2O)c1C : Pks13 thioesterase: -11.86%; TcHisRS: 3.361%
* Cc1cc(C)n(C2CCN(C(=O)CN3C(=O)CSc4ccccc43)C2)n1 (stereo unspecified) : Pks13 thioesterase: -4.01%; TcHisRS: 6.173%
* CCOc1ccccc1OC1CCN(C(=O)c2ccc(=O)[nH]n2)CC1 : Pks13 thioesterase: -6.342%; TcHisRS: -1.141%
* CO[C@H]1CCN(S(=O)(=O)c2cn(C)cn2)[C@H]1Cc1ccccc1 : Pks13 thioesterase: -33.85%; TcHisRS: 5.473%
* O=C(O)c1ccccc1-c1ccc(CN2CCC(CO)CC2)cn1 : Pks13 thioesterase: 4.278%; TcHisRS: 6.513%
* CC(C)(C)c1ncc(C(=O)NC(C(N)=O)c2ccccc2)s1 (stereo unspecified) : Pks13 thioesterase: -23.95%; TcHisRS: 2.312%
* O=S(=O)(NCCn1ccc(-c2ccncc2)n1)C1CC1 : Pks13 thioesterase: -7.371%; TcHisRS: 2.439%
* c1ccc(Cn2cccn2)c(CNCc2cnc(N3CCCC3)nc2)c1 : Pks13 thioesterase: -14.22%; TcHisRS: 3.659%
* COc1ccc([C@@H]2CN(C(=O)CCc3cc(Cl)no3)C[C@H]2N(C)C)cc1 : Pks13 thioesterase: -5.49%; TcHisRS: 7.595%
* CC1CN(C)c2ccccc2CN1C(=O)c1cnsn1 (stereo unspecified) : Pks13 thioesterase: 2.905%; TcHisRS: 8.247%
* CCOC(=O)C1(Cc2ccccc2)CCCN(Cc2nccn2CC)C1 (stereo unspecified) : Pks13 thioesterase: -17.79%; TcHisRS: 0.5435%
* CC(C)CNC(=O)Cn1ccc2ccccc21 : Pks13 thioesterase: 1.353%; TcHisRS: 1.754%
* O=C(NCC1(O)CCC1)c1c(O)cc(F)cc1F : Pks13 thioesterase: -12.56%; TcHisRS: 4.95%
* N#Cc1cnc2cc(F)cc(F)c2c1NC1CCN(CC(N)=O)CC1 : Pks13 thioesterase: -3.21%; TcHisRS: 6.186%
* CC(Cn1ccnc1)NCc1csc2c1CCCC2 (stereo unspecified) : Pks13 thioesterase: -31.35%; TcHisRS: 8.743%
* CN(C)CCO[C@H]1CN(C(=O)c2cccs2)[C@@H]2COC[C@H]12 : Pks13 thioesterase: -7.738%; TcHisRS: 4.132%
* O=C(Cn1cc(I)cn1)N1CCOCC1 : Pks13 thioesterase: -32.27%; TcHisRS: -1.163%
* CCc1noc(C)c1-c1nc(Cc2cccs2)nn1C1CCN(C)CC1 : Pks13 thioesterase: -8.519%; TcHisRS: 7.059%
* CNc1cc(N2CCCC2CNCc2ccco2)ncn1 (stereo unspecified) : Pks13 thioesterase: -7.389%; TcHisRS: 11.21%
* Cc1cccc(N2CCN(CCC(=O)NCc3cccnc3)CC2)c1 : Pks13 thioesterase: -11.86%; TcHisRS: 5.528%
* Cc1ccc(OCCn2cnc3oc(C)c(C(=O)O)c3c2=O)cc1 : Pks13 thioesterase: -19.97%; TcHisRS: -4.464%
* COc1ccccc1OCCNC(=O)CN1CCc2cncnc2C1 : Pks13 thioesterase: -11.16%; TcHisRS: 7.514%
* COc1cccc(NC(=O)N(CCO)Cc2ccsc2)c1 : Pks13 thioesterase: -18.52%; TcHisRS: 4.878%

The last 3 entries again:

{"smiles": "Cc1ccc(OCCn2cnc3oc(C)c(C(=O)O)c3c2=O)cc1", "Pks13 thioesterase": -19.97, "TcHisRS": -4.464}
{"smiles": "COc1ccccc1OCCNC(=O)CN1CCc2cncnc2C1", "Pks13 thioesterase": -11.16, "TcHisRS": 7.514}
{"smiles": "COc1cccc(NC(=O)N(CCO)Cc2ccsc2)c1", "Pks13 thioesterase": -18.52, "TcHisRS": 4.878}

Source: ChEMBL document CHEMBL3988442, “University of Dundee, Small-Polar-MMV Screening Library” (2021).